Laboratory results reported in the supplement of paper PMC6411743.
± gives the standard deviation of the averaged measurements. Some of the results follow.

Legend:
Assay in all cases: NP40-soluble protein abundance relative to vehicle (solubility fold change) (ratio); higher = more soluble protein in presence of GTP
[1] = target: T1, UniProt Q96AX2 and related entries
T1 sequence (whole entry): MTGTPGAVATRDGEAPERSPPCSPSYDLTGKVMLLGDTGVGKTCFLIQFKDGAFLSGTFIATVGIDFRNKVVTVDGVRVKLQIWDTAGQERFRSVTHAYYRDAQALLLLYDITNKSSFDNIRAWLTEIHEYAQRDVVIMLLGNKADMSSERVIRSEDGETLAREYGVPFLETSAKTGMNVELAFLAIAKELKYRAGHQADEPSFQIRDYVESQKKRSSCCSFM
Summary of the method: (§1)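 Data come from three independent experiments in which Dounce-homogenised Jurkat crude lysate was treated at eight concentrations from 0.1 to 10 mM. Treatment ran 10 min at room temperature and then 3 min at 37 °C, after which 0.8% NP40 and benzonase were added for 60 min at 4 °C before ultracentrifugation. The supernatant underwent TMT labelling and LC-MS/MS, and vsn-normalised intensities were expressed as fold change against the detergent-processed vehicle in each replicate.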

[2] = target: T2, UniProt Q96BZ9 and related entries
T2 sequence (whole entry): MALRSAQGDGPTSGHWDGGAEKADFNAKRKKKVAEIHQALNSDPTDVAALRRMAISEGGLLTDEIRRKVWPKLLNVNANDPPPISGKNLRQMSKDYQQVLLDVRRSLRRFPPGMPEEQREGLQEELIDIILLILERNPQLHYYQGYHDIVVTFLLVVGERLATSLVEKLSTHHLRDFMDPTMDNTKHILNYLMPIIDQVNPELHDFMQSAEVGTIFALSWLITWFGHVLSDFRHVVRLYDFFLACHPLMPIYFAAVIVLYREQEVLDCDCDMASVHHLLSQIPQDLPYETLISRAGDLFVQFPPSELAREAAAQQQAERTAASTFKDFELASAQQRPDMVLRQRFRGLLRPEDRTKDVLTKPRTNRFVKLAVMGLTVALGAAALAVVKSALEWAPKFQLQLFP
Summary of the method: as §1

[3] = target: T3, UniProt Q96F46 and related entries
T3 sequence (whole entry): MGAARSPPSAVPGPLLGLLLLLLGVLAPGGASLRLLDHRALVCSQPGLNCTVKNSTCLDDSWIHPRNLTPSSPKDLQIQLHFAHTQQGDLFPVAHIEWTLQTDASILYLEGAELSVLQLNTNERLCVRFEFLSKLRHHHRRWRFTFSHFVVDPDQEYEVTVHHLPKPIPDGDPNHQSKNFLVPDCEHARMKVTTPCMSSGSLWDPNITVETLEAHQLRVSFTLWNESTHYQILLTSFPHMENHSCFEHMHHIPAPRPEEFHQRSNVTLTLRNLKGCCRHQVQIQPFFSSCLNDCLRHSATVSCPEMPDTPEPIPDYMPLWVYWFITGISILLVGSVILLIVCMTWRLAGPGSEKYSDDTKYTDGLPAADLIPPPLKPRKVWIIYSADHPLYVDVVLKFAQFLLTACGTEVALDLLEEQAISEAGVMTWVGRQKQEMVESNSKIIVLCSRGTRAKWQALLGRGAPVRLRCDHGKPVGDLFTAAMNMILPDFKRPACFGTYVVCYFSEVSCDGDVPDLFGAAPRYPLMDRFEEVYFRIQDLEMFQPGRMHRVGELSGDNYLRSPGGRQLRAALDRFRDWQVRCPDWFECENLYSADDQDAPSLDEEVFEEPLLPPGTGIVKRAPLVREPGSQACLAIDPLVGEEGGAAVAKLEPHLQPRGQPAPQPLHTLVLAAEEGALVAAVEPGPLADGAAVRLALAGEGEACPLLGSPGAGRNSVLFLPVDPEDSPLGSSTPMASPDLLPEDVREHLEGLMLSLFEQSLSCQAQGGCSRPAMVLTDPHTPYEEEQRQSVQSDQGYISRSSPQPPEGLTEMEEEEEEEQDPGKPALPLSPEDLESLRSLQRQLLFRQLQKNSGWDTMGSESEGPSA
Summary of the method: as §1

[4] = target: T4, UniProt Q96FZ7 and related entries
T4 sequence (whole entry): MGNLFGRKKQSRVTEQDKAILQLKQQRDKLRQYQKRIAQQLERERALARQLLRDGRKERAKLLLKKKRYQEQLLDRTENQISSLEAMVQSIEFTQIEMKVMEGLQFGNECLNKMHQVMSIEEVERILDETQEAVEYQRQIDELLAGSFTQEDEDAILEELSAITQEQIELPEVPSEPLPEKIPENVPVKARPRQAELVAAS
Summary of the method: as §1

UniProt Q96GS4 = target: T5, UniProt Q96GS4
T5 sequence (whole entry): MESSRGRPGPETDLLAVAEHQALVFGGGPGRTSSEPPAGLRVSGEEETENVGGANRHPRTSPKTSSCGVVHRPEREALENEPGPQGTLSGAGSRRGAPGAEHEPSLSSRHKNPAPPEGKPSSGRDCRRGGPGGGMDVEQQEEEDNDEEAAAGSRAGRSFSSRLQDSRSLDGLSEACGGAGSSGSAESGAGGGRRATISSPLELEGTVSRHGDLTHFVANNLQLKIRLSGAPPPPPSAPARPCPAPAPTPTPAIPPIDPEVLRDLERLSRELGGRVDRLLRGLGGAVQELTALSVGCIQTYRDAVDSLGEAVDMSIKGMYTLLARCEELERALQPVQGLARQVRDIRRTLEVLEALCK
Summary of the method: as §1

WASF1 = target: T6, WASF1 (UniProt Q92558)
T6 sequence (whole entry): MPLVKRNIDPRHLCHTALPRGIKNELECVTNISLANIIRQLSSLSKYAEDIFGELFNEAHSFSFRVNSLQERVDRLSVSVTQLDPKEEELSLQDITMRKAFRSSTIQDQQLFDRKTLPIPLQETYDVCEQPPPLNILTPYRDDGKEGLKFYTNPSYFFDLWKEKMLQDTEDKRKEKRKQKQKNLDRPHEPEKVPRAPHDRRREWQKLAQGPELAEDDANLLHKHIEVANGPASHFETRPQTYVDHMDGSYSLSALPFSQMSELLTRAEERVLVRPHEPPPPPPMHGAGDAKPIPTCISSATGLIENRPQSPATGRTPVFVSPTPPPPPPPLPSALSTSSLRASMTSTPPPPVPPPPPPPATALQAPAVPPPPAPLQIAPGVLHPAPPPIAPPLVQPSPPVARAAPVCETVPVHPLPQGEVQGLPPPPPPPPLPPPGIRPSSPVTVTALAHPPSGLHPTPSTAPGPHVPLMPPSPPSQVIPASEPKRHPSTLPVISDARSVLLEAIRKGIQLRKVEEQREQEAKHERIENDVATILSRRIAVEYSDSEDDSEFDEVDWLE
Summary of the method: as §1

Nc1nc2c(ncn2[C@@H]2O[C@H](COP(=O)(O)OP(=O)(O)OP(=O)(O)O)[C@@H](O)[C@H]2O)c(=O)[nH]1 [guanosine triphosphate]
NP40-soluble protein abundance ([1]; concentration: 8mM): 0.977 ± 0.15
NP40-soluble protein abundance ([1]; concentration: 10mM): 0.906 ± 0.15
NP40-soluble protein abundance ([2]; concentration: 0.1mM): 0.995 ± 0.14
NP40-soluble protein abundance ([2]; concentration: 0.5mM): 0.959 ± 0.11
NP40-soluble protein abundance ([2]; concentration: 1mM): 0.984 ± 0.14
NP40-soluble protein abundance ([2]; concentration: 2mM): 1.01 ± 0.17
NP40-soluble protein abundance ([2]; concentration: 4mM): 0.97 ± 0.073
NP40-soluble protein abundance ([2]; concentration: 6mM): 0.966 ± 0.1
NP40-soluble protein abundance ([2]; concentration: 8mM): 1.08 ± 0.24
NP40-soluble protein abundance ([2]; concentration: 10mM): 0.999 ± 0.081
NP40-soluble protein abundance ([3]; concentration: 0.1mM): 1.03 ± 0.093
NP40-soluble protein abundance ([3]; concentration: 0.5mM): 1.06 ± 0.12
NP40-soluble protein abundance ([3]; concentration: 1mM): 1.05 ± 0.076
NP40-soluble protein abundance ([3]; concentration: 2mM): 0.963 ± 0.088
NP40-soluble protein abundance ([3]; concentration: 4mM): 1.04 ± 0.098
NP40-soluble protein abundance ([3]; concentration: 6mM): 1.02 ± 0.049
NP40-soluble protein abundance ([3]; concentration: 8mM): 1 ± 0.013
NP40-soluble protein abundance ([3]; concentration: 10mM): 1.11 ± 0.097
NP40-soluble protein abundance ([4]; concentration: 0.1mM): 0.955 ± 0.12
NP40-soluble protein abundance ([4]; concentration: 0.5mM): 0.871 ± 0.056
NP40-soluble protein abundance ([4]; concentration: 1mM): 0.993 ± 0.11
NP40-soluble protein abundance ([4]; concentration: 2mM): 1.06 ± 0.1
NP40-soluble protein abundance ([4]; concentration: 4mM): 1.03 ± 0.1
NP40-soluble protein abundance ([4]; concentration: 6mM): 1.03 ± 0.076
NP40-soluble protein abundance ([4]; concentration: 8mM): 0.885 ± 0.26
NP40-soluble protein abundance ([4]; concentration: 10mM): 1.15 ± 0.14
NP40-soluble protein abundance (UniProt Q96GS4; concentration: 0.1mM): 0.961 ± 0.069
NP40-soluble protein abundance (UniProt Q96GS4; concentration: 0.5mM): 0.948 ± 0.12
NP40-soluble protein abundance (UniProt Q96GS4; concentration: 1mM): 1.06 ± 0.13
NP40-soluble protein abundance (UniProt Q96GS4; concentration: 2mM): 1.02 ± 0.097
NP40-soluble protein abundance (UniProt Q96GS4; concentration: 4mM): 0.996 ± 0.16
NP40-soluble protein abundance (UniProt Q96GS4; concentration: 6mM): 1.01 ± 0.1
NP40-soluble protein abundance (UniProt Q96GS4; concentration: 8mM): 0.994 ± 0.097
NP40-soluble protein abundance (UniProt Q96GS4; concentration: 10mM): 0.975 ± 0.068
NP40-soluble protein abundance (WASF1; concentration: 0.1mM): 1 ± 0.082
NP40-soluble protein abundance (WASF1; concentration: 0.5mM): 1.02 ± 0.096
NP40-soluble protein abundance (WASF1; concentration: 1mM): 1.06 ± 0.11
NP40-soluble protein abundance (WASF1; concentration: 2mM): 1.04 ± 0.13
NP40-soluble protein abundance (WASF1; concentration: 4mM): 1.03 ± 0.17
NP40-soluble protein abundance (WASF1; concentration: 6mM): 1.05 ± 0.1
NP40-soluble protein abundance (WASF1; concentration: 8mM): 1.11 ± 0.064
NP40-soluble protein abundance (WASF1; concentration: 10mM): 1.07 ± 0.096
